# Laboratory results published in the supplement of paper PMC10849652.
# By UniProt entry, the sequences of proteins in these tests, tags left out. Where a name states a change or a piece, a line headed by the entry shows the natural chain unless it says otherwise.
# UniProt Q9UI26: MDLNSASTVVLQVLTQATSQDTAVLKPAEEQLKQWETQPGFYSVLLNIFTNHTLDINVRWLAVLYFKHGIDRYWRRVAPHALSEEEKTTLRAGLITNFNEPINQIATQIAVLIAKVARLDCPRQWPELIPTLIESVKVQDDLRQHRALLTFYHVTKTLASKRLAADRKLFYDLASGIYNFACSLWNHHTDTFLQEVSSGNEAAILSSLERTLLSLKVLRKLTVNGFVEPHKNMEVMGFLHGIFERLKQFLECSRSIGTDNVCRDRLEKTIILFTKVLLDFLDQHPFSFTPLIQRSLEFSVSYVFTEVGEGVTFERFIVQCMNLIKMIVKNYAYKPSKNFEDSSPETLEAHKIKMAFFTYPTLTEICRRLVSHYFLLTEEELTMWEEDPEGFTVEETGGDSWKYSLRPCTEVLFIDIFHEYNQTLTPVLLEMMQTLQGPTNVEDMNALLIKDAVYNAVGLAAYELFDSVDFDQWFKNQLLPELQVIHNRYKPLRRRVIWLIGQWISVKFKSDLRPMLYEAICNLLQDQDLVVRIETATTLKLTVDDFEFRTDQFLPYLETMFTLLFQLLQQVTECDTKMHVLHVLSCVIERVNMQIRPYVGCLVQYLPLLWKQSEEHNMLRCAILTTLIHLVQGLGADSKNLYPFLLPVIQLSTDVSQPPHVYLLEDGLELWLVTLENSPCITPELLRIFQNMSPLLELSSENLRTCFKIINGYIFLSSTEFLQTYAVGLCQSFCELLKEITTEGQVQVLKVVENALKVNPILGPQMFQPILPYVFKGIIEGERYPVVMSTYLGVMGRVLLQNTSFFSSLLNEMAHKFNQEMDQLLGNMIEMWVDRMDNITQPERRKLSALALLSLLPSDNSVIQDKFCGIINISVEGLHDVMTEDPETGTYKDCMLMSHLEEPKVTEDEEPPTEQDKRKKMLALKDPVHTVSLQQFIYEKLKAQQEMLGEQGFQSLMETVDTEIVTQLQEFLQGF
# UniProt Q96SY0, whole entry, looked up: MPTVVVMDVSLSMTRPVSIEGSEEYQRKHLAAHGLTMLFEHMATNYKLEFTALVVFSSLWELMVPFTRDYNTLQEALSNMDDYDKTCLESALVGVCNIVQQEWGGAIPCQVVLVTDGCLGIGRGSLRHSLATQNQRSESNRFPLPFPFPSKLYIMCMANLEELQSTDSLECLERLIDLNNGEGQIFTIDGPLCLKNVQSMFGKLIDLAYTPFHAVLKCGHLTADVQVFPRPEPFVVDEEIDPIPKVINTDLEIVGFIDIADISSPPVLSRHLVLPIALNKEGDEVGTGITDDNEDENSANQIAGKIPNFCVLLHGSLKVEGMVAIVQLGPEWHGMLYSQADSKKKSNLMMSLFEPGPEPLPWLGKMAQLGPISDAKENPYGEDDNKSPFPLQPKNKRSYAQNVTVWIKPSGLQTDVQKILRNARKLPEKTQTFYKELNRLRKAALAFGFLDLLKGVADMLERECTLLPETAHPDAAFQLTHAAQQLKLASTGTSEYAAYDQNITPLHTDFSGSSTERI
# UniProt Q9Y6M1: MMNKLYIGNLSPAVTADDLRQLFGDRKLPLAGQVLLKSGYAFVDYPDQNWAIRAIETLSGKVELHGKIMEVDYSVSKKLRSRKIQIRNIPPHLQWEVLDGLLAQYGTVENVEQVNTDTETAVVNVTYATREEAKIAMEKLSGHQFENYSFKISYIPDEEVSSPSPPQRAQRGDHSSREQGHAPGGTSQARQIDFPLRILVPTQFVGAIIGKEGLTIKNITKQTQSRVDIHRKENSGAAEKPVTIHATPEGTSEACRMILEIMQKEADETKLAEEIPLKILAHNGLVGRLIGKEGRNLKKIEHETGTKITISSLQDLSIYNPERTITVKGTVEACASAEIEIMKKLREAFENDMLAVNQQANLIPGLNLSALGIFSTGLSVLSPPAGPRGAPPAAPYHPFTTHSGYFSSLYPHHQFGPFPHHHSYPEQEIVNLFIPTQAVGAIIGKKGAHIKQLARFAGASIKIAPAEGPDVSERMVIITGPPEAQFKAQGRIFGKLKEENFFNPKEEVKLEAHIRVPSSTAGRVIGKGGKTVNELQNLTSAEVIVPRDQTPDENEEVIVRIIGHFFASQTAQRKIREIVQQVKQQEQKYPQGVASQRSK
# UniProt P23677, whole entry, looked up: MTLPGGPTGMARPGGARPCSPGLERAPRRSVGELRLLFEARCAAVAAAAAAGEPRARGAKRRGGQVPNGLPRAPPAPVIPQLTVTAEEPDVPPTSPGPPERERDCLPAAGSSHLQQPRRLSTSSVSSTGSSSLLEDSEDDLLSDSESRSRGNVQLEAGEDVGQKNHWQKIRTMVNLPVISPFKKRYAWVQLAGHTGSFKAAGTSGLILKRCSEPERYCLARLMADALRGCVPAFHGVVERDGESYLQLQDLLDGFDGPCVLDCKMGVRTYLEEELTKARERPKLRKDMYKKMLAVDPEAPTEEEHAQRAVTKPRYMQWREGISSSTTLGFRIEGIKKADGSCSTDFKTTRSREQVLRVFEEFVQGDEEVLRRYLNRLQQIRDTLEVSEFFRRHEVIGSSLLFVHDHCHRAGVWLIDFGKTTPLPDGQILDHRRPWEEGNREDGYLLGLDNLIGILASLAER
# UniProt Q96J02: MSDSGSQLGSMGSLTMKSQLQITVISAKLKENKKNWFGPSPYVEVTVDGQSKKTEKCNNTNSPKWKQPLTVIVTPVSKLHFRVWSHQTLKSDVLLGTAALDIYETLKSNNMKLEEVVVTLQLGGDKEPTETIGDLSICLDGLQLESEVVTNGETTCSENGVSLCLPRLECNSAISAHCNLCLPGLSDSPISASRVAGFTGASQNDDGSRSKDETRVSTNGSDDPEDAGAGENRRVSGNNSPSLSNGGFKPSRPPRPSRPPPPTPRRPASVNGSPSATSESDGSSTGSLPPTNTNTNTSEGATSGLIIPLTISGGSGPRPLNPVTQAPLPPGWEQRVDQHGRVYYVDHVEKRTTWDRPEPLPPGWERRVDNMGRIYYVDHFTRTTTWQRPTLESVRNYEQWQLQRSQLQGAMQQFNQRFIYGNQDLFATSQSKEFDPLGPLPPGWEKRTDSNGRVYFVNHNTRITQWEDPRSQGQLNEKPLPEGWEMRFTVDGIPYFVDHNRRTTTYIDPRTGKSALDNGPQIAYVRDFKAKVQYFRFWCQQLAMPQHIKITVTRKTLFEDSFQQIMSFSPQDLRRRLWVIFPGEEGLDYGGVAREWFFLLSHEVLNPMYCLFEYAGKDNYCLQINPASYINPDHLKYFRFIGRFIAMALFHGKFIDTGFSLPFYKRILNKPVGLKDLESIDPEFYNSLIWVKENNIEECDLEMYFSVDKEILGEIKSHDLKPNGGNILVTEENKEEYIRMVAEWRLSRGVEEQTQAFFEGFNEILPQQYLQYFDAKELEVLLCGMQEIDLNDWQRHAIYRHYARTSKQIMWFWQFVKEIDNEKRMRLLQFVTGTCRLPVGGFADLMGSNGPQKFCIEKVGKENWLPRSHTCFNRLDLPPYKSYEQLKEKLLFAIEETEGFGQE
# UniProt Q9H1B7, whole entry, looked up: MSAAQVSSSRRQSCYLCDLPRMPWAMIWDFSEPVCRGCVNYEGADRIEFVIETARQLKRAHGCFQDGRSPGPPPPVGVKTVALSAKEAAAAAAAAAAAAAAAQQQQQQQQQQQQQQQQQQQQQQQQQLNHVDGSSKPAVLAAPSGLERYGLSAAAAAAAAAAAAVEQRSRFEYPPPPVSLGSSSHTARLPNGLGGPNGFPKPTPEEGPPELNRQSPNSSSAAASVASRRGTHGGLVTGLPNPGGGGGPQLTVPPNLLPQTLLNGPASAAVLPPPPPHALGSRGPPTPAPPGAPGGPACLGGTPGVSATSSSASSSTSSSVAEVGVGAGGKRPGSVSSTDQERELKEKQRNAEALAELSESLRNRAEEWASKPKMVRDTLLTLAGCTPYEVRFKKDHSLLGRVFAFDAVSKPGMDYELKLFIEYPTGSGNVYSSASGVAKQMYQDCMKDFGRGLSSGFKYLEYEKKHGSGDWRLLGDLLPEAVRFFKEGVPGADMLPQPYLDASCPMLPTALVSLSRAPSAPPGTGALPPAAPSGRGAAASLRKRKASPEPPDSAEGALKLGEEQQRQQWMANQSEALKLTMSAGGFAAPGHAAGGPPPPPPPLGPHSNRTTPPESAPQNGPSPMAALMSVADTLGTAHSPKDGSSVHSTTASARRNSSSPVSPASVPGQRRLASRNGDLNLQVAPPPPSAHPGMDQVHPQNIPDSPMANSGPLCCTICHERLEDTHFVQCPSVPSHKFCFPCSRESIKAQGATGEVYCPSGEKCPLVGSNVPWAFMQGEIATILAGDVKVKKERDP
# UniProt Q96HW7, whole entry, looked up: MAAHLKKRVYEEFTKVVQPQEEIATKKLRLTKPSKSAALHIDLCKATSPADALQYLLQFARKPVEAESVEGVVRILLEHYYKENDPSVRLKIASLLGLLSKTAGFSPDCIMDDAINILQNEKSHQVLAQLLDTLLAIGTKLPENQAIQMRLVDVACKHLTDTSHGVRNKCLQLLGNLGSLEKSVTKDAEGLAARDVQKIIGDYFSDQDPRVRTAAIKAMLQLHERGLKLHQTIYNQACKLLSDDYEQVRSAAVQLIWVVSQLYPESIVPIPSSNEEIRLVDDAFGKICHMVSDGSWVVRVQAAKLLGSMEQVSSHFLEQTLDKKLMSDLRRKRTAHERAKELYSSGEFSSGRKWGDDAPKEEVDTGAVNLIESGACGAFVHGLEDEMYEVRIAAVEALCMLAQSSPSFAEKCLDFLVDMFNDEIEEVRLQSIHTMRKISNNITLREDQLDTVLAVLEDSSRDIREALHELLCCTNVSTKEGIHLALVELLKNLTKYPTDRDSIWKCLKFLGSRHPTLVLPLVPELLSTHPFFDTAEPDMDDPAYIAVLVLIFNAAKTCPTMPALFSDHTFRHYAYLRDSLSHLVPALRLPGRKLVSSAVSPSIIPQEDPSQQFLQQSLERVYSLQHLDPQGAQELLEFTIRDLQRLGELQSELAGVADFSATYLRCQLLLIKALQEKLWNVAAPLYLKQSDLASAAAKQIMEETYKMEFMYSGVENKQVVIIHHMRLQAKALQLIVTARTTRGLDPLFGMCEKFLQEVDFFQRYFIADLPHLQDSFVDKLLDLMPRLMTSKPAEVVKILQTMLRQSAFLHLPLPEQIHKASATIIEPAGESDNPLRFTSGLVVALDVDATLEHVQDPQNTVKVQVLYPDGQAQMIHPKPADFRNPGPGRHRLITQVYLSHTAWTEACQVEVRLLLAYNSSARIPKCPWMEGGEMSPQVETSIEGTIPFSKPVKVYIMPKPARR
# UniProt Q5TA45, whole entry, looked up: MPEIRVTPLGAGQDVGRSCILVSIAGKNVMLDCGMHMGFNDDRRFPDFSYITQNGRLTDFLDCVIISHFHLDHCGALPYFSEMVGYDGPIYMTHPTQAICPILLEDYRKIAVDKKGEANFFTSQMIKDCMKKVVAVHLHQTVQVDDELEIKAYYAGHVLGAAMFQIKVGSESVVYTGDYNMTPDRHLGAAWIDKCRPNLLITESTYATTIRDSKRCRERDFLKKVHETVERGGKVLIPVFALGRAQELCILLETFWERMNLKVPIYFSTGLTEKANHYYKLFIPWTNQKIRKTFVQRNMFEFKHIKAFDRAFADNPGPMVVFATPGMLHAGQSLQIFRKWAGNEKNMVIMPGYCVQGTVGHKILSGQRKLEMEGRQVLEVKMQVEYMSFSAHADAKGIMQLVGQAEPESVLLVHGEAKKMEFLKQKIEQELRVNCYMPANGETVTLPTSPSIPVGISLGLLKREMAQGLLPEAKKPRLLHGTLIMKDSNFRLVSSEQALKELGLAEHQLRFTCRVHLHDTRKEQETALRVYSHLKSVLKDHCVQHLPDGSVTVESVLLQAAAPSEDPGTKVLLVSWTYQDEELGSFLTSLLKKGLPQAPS
# UniProt Q96T52: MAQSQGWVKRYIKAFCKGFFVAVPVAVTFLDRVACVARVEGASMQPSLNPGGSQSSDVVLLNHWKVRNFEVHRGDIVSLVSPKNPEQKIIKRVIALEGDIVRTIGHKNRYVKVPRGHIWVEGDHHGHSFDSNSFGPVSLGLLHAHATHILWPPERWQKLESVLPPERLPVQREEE
# UniProt Q9H6K1: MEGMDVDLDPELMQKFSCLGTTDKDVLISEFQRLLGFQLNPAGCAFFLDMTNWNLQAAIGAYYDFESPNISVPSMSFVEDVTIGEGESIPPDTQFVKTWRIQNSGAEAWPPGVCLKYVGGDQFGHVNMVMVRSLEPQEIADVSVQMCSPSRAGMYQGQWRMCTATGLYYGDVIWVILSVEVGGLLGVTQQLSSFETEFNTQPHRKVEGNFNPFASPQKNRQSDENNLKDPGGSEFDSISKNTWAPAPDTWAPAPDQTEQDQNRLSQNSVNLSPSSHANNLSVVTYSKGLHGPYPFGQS
# UniProt O43736: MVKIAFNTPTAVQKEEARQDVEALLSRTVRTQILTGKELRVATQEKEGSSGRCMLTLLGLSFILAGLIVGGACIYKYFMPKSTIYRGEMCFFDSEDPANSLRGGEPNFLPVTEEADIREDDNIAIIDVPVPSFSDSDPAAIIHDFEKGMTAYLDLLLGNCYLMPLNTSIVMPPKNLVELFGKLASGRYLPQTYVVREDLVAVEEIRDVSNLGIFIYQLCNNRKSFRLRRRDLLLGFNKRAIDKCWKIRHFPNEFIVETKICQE
# Some of the results follow. Residues, ends and D or L forms follow the SMILES beside them. *: point of attachment. Cbz = O=C(OCc1ccccc1)*
# Columns and labels:
# Experiment in all cases: log2 fold change, soluble protein after heating vs DMSO (PISA); higher = thermal stabilisation; K562 cells, 10 uM, 30 min; active = over 0.2 and 3.5 SD of the protein, either way, in both replicates (recomputed)
# erlotinib = compound: C#Cc1cccc(Nc2ncnc3cc(OCCOC)c(OCCOC)cc23)c1 [erlotinib]
# How it was run: (§1)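 Thermal stability values are relative to control samples and come from duplicates. They are expressed as log2 fold changes. For measurement, K562 cells (2×10^6 cells/mL) received 10 μM compound for 30 min, and aliquots were heated for 3 min over 48°C-58°C, pooled, and extracted at 4°C in PBS with 0.5% NP-40. Soluble protein, the supernatant after 21,000xg for 90 min, was quantified by TMTpro 16plex LC-MS/MS with equalised channel sums.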
# [1] = compound: C/C(=N\NC(=O)C1=CC(=CC=C1)S(=O)(=O)N2CCOCC2)/C3=C(C=CC(=C3)Cl)O
# How it was run: as §1
# [2] = compound: C1=CC(=C(C=C1Cl)C2=NC3=NC=CN=C3C(=N2)NC4=CC=NC=C4)F
# How it was run: as §1
# [3] = compound: C1=CC(=CC=C1C2=NC3=C(N2)C=C(C=C3)C(=O)N)OC4=CC=C(C=C4)Cl
# How it was run: as §1
# [4] = compound: C1=CC2=C(C=CC(=C2)/C=C\3/C(=O)NC(=NCC4=CC=CS4)S3)N=C1
# How it was run: as §1
# [5] = compound: C1=CC2=NC=CN=C2C=C1/C=C/3\C(=O)NC(=O)S3
# How it was run: as §1
# [6] = compound: C1=CC=C(C=C1)C2=NC(=C(N2)C3=CC=NC=C3)C4=CC(=C(C=C4)Cl)O
# How it was run: as §1
# [7] = compound: C1=CC=C2C(=C1)C3=NNC4=CC=CC(=C43)C2=O
# How it was run: as §1
# [8] = compound: C1CCN(C1)C(=O)NC2=CC=CC(=C2)NC3=NC=C(C(=N3)NCCC4=CN=CN4)Br
# How it was run: as §1
# [9] = compound: C1CN(CCC1(CC2=CC=C(C=C2)Cl)N)C3=NC=NC4=C3C=CN4
# How it was run: as §1
# IRAK-1-4 Inhibitor I = compound: C1COCCN1CCN2C3=CC=CC=C3N=C2NC(=O)C4=CC(=CC=C4)[N+](=O)[O-] [IRAK-1-4 Inhibitor I]
# How it was run: as §1
# ibrutinib = compound: C=CC(=O)N1CCC[C@@H](n2nc(-c3ccc(Oc4ccccc4)cc3)c3c(N)ncnc32)C1 [ibrutinib]
# How it was run: as §1
# [10] = compound: CC(=O)c1cnc2ccc(-c3cc(Cl)c(O)c(Cl)c3)nc2c1N[C@H]1CC[C@H](CN(C)C)CC1
# How it was run: as §1
# ralimetinib = compound: CC(C)(C)Cn1c(N)nc2ccc(-c3[nH]c(C(C)(C)C)nc3-c3ccc(F)cc3)nc21 [ralimetinib]
# How it was run: as §1
# [11] = compound: CC(C)(O)CC(=O)NCCn1ccc2ncnc(Nc3ccc(Oc4cccc(C(F)(F)F)c4)c(Cl)c3)c21
# How it was run: as §1
# [12] = compound: CC(C)C1=C2N=C(C=C(N2N=C1)NCC3=CC=CC=C3)NCCCCCCN
# How it was run: as §1
# [13] = compound: CC(C)C[C@@H](C=O)NC(=O)[C@H](CC(C)C)NC(=O)[C@H](CC(C)C)NC(=O)OCc1ccccc1
# How it was run: as §1
# pinometostat = compound: CC(C)N(C[C@H]1O[C@@H](n2cnc3c(N)ncnc32)[C@H](O)[C@@H]1O)[C@H]1C[C@@H](CCc2nc3cc(C(C)(C)C)ccc3[nH]2)C1 [pinometostat]
# How it was run: as §1
# [14] = compound: CC1=C(C2=C(C=C1)C(=O)C3=CC=CC=C3N2CCCN)C
# How it was run: as §1
# [15] = compound: CC1=C(C(CC(=O)N1)C2=CC=C(C=C2)C(F)(F)F)C(=O)NC3=C(C=C4C(=C3)C=NN4)F
# How it was run: as §1
Target,log2 fold change (erlotinib),log2 fold change [1],log2 fold change [2],log2 fold change [3],log2 fold change [4],log2 fold change [5],log2 fold change [6],log2 fold change [7],log2 fold change [8],log2 fold change [9],log2 fold change (IRAK-1-4 Inhibitor I),log2 fold change (ibrutinib),log2 fold change [10],log2 fold change (ralimetinib),log2 fold change [11],log2 fold change [12],log2 fold change [13],log2 fold change (pinometostat),log2 fold change [14],log2 fold change [15]
IPO13 (UniProt O94829),inactive: -0.045,inactive: -0.018,inactive: 0.05,inactive: -0.037,inactive: 0.025,inactive: 0.021,inactive: -0.059,inactive: -0.033,inactive: 0.013,inactive: -0.062,inactive: -0.005,inactive: -0.1,inactive: 0.066,inactive: 0.103,inactive: -0.226,active: -0.281,inactive: 0.002,inactive: 0.015,inactive: -0.04,–
IPO11 isoform 2 (UniProt Q9UI26),inactive: -0.063,inactive: 0.066,inactive: 0.074,inactive: 0.013,inactive: 0.016,inactive: 0.038,inactive: 0.011,inactive: -0.023,inactive: 0.001,inactive: -0.009,inactive: 0.011,inactive: -0.014,inactive: 0.039,inactive: -0.016,inactive: -0.095,inactive: 0.018,inactive: -0.039,inactive: -0.035,inactive: -0.018,–
INTS14 (UniProt Q96SY0),inactive: 0.077,inactive: 0.071,inactive: 0.037,inactive: 0.057,inactive: 0.021,inactive: 0.029,inactive: 0.07,inactive: -0.022,inactive: -0.023,inactive: -0.009,inactive: 0.005,inactive: 0.016,inactive: -0.069,inactive: -0.047,inactive: -0.082,inactive: -0.124,inactive: -0.01,inactive: -0.01,inactive: 0.016,inactive: 0
IGF2BP2 (UniProt Q9Y6M1),inactive: -0.013,inactive: -0.083,inactive: -0.255,inactive: -0.015,inactive: 0.158,inactive: 0.014,inactive: 0.007,inactive: 0.075,inactive: 0.057,inactive: 0.075,inactive: -0.168,inactive: 0.048,inactive: -0.011,inactive: 0.209,inactive: 0.037,inactive: -0.249,inactive: 0.106,inactive: 0.477,inactive: -0.054,–
ITPKA (UniProt P23677),inactive: 0.086,inactive: 0.039,inactive: -0.191,inactive: -0.052,inactive: 0.157,inactive: -0.343,inactive: -0.075,inactive: 0.065,inactive: -0.066,inactive: -0.144,inactive: -0.154,inactive: -0.061,inactive: -0.672,inactive: 0.022,inactive: -0.222,inactive: -0.51,inactive: -0.078,inactive: -0.022,inactive: -0.015,inactive: -0.182
ITCH (UniProt Q96J02),inactive: 0.022,inactive: 0.097,inactive: -0.147,inactive: 0.044,inactive: 0.047,inactive: -0.023,inactive: 0.003,inactive: -0.043,inactive: -0.015,inactive: 0.012,inactive: -0.066,inactive: 0.056,inactive: -0.068,inactive: 0.061,inactive: 0.054,inactive: -0.072,inactive: 0.019,inactive: 0.002,inactive: 0.103,inactive: -0.015
IRF2BPL (UniProt Q9H1B7),inactive: -0.021,inactive: 0.023,inactive: 0.068,inactive: 0.04,inactive: -0.03,inactive: 0.064,inactive: 0.089,inactive: 0.025,inactive: -0.041,inactive: -0.022,inactive: 0.031,inactive: 0.038,inactive: 0.008,inactive: 0.013,inactive: -0.18,inactive: 0.076,inactive: 0.063,inactive: -0.206,inactive: 0.093,–
INTS4 (UniProt Q96HW7),inactive: 0.036,inactive: 0.052,inactive: 0.032,inactive: 0.039,inactive: 0.07,inactive: 0.018,inactive: 0.04,inactive: -0.002,inactive: -0.047,inactive: 0.028,inactive: 0.002,inactive: -0.007,inactive: -0.017,inactive: -0.014,inactive: -0.041,inactive: 0.04,inactive: -0.033,inactive: -0.011,inactive: 0.099,inactive: 0.031
IRGQ (UniProt Q8WZA9),inactive: 0.017,inactive: 0.019,inactive: 0.114,inactive: -0.04,inactive: -0.036,inactive: 0.04,inactive: 0.032,inactive: -0.016,inactive: 0.019,inactive: 0.008,inactive: 0.002,inactive: -0.019,inactive: 0.011,inactive: -0.105,inactive: -0.072,inactive: -0.016,inactive: 0.087,inactive: 0.003,inactive: -0.02,inactive: 0.031
ITGAV (UniProt P06756),inactive: -0.005,inactive: -0.005,inactive: 0.026,inactive: 0.01,inactive: 0.024,inactive: 0,inactive: 0.014,inactive: -0.032,inactive: -0.001,inactive: 0.036,inactive: 0.057,inactive: 0.05,inactive: -0.024,inactive: -0.04,inactive: 0.02,inactive: 0.043,inactive: 0.029,inactive: 0.01,inactive: 0.011,inactive: 0
ITFG2 (UniProt Q969R8),inactive: -0.089,inactive: 0.065,inactive: -0.187,inactive: 0.164,inactive: 0.077,inactive: -0.042,inactive: -0.025,inactive: 0.006,inactive: -0.025,inactive: -0.019,inactive: 0.015,inactive: 0.127,inactive: -0.033,inactive: -0.061,inactive: -0.062,inactive: -0.103,inactive: 0.011,inactive: 0.075,inactive: 0.024,inactive: 0.013
IGF2BP1 (UniProt Q9NZI8),inactive: -0.049,inactive: -0.024,inactive: -0.463,inactive: 0.046,inactive: 0.013,inactive: -0.01,inactive: -0.101,inactive: -0.003,inactive: 0.037,inactive: -0.008,inactive: -0.269,inactive: 0.061,inactive: -0.008,inactive: 0.189,inactive: 0.066,inactive: -0.307,inactive: 0.127,inactive: 0.333,inactive: -0.448,inactive: 0.021
INTS11 (UniProt Q5TA45),inactive: -0.023,inactive: 0.03,inactive: 0.066,inactive: 0.035,inactive: 0.015,inactive: -0.013,inactive: -0.045,inactive: -0.012,inactive: -0.075,inactive: 0.02,inactive: 0,inactive: -0.019,inactive: -0.039,inactive: -0.034,inactive: -0.073,inactive: -0.018,inactive: 0.02,inactive: -0.041,inactive: 0.026,inactive: -0.002
IMMP2L (UniProt Q96T52),inactive: 0.013,inactive: -0.046,inactive: 0.031,inactive: -0.029,inactive: 0.023,inactive: 0.129,inactive: -0.01,inactive: 0.028,inactive: -0.026,inactive: 0.055,inactive: 0.002,inactive: 0.002,inactive: 0.033,inactive: 0.02,inactive: -0.029,inactive: 0.013,inactive: -0.038,inactive: -0.025,inactive: 0.001,inactive: -0.088
ILRUN (UniProt Q9H6K1),inactive: -0.009,inactive: 0.069,inactive: -0.033,inactive: 0.027,inactive: 0.075,inactive: 0.043,inactive: -0.06,inactive: -0.063,inactive: 0.028,inactive: 0.041,inactive: 0.031,inactive: 0.044,inactive: -0.011,inactive: -0.004,inactive: -0.035,inactive: -0.148,inactive: 0.027,inactive: -0.06,inactive: -0.055,–
ITM2A (UniProt O43736),inactive: 0.017,inactive: -0.039,inactive: 0.094,inactive: 0.047,inactive: 0.03,inactive: 0.018,inactive: 0.002,inactive: -0.052,inactive: -0.027,inactive: -0.101,inactive: 0.012,inactive: 0.012,inactive: 0.019,inactive: 0.015,inactive: 0,inactive: 0.163,inactive: 0.157,inactive: 0.036,inactive: -0.209,inactive: 0.024

# Two entries from above, with bars between the fields:
Target | log2 fold change (erlotinib) | log2 fold change [1] | log2 fold change [2] | log2 fold change [3] | log2 fold change [4] | log2 fold change [5] | log2 fold change [6] | log2 fold change [7] | log2 fold change [8] | log2 fold change [9] | log2 fold change (IRAK-1-4 Inhibitor I) | log2 fold change (ibrutinib) | log2 fold change [10] | log2 fold change (ralimetinib) | log2 fold change [11] | log2 fold change [12] | log2 fold change [13] | log2 fold change (pinometostat) | log2 fold change [14] | log2 fold change [15]
IRF2BPL (UniProt Q9H1B7) | inactive: -0.021 | inactive: 0.023 | inactive: 0.068 | inactive: 0.04 | inactive: -0.03 | inactive: 0.064 | inactive: 0.089 | inactive: 0.025 | inactive: -0.041 | inactive: -0.022 | inactive: 0.031 | inactive: 0.038 | inactive: 0.008 | inactive: 0.013 | inactive: -0.18 | inactive: 0.076 | inactive: 0.063 | inactive: -0.206 | inactive: 0.093 | –
INTS4 (UniProt Q96HW7) | inactive: 0.036 | inactive: 0.052 | inactive: 0.032 | inactive: 0.039 | inactive: 0.07 | inactive: 0.018 | inactive: 0.04 | inactive: -0.002 | inactive: -0.047 | inactive: 0.028 | inactive: 0.002 | inactive: -0.007 | inactive: -0.017 | inactive: -0.014 | inactive: -0.041 | inactive: 0.04 | inactive: -0.033 | inactive: -0.011 | inactive: 0.099 | inactive: 0.031
